PubChem BioAssay AID1259405 | NCATS, 2018
In all, the deposit lists about 50,000 reagents; below is a part drawn at random. Over the whole deposit, about 4,000 (8%) got an active call. 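Mouse siRNA library applied to hamster cells; one well for each siRNA.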 Entries without a mark were called inactive. The numbers tell different reagents against one gene apart.

Screen: 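Silenced genes that increase secreted GFP made by CHO cells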 (primary screen)
System: Chinese hamster CHO-K1 ovary cells with stable secreted eGFP expression
Knock-down reagent: single siRNA against mouse genes, 0.8 pmol siRNA per well (2 µl of 400 nM stock)
Timing: 3 days
Detection: 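Percent of the per-plate non-targeting control median for intracellular GFP per well by laser scanning cytometry and for cell viability by ATP luminescence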
Scale: GFP, % of control: higher = more GFP per well, higher productivity; viability (ATP), % of control: higher = more viable cells (more ATP)
Hit rule: 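Called active when intracellular GFP, relative to negative control, is at or above 120%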

Gene,reagent no.,"GFP, % of control","viability (ATP), % of control"
Zc3h12a,1,38.5,35.4
Zc3h12a,2,51.3,66.9
Zc3h12a,3,153 (active),142
Spaca6,1,106,125
Spaca6,2,71.3,53.7
Spaca6,3,88.9,83.2
Alox8,1,89.8,61.9
Alox8,2,140 (active),75.1
Alox8,3,88.6,63.1
Anxa7,1,170 (active),145
Anxa7,2,58.6,56.2
Anxa7,3,75.2,74.3
Anxa7,4,103,76.3
Anxa7,5,95.9,84
Anxa7,6,120,85.3
Igsf21,1,58.6,68.3
Igsf21,2,71.9,100
Igsf21,3,81.2,110
Zfp324,1,97.3,68.4
Zfp324,2,54.5,67.1
Spon1,1,77.2,97.7
Spon1,2,76.8,72.8
St8sia2,1,93.6,81.8
St8sia2,2,139 (active),141
St8sia2,3,101,92.2
Crabp1,1,213 (active),127
Crabp1,2,97.5,68.4
Crabp1,3,83.4,77.1
Crabp1,4,132 (active),58.8
Crabp1,5,106,81.6
Crabp1,6,139 (active),95.4
Tmsb15a,1,57.1,62
Tmsb15a,2,98.2,44.6
Tmsb15a,3,44,64.4
Skint4,1,60,59
Skint4,2,47.4,40.7
Skint4,3,91.4,96.5
Atp10b,1,93,68.7
Atp10b,2,83.7,101
Atp10b,3,59.5,49.3
Cmc2,1,81.7,98
Cmc2,2,101,66.6
Cmc2,3,50.2,58.1

No new results follow: entries from further up.
Gene,reagent no.,"GFP, % of control","viability (ATP), % of control"
Anxa7,6,120,85.3
Igsf21,1,58.6,68.3
Igsf21,2,71.9,100
Igsf21,3,81.2,110
Zfp324,1,97.3,68.4
Zfp324,2,54.5,67.1
Spon1,1,77.2,97.7

Continued:
Gene,reagent no.,"GFP, % of control","viability (ATP), % of control"
Or5w17,1,99.1,93.9
Or5w17,2,65.2,68.2
Or5w17,3,130 (active),78.1
Grk1,1,122 (active),80.8
Tfap2d,1,51.8,56
Tfap2d,2,69.8,69.6
Tfap2d,3,78.8,88.6
Ubxn2b,1,47.6,49.1
Ubxn2b,2,58,78.1
Ubxn2b,3,73.2,69.3
Drd2,1,155 (active),107
Drd2,2,81.6,112
Drd2,3,98.2,76.1
Tmem33,1,98.2,113
Tmem33,2,75,90.8
Tmem33,3,83.6,74.1
Pced1b,1,72.7,77.2
Pced1b,2,85.7,48.3
Pced1b,3,124 (active),59.7
Trmt44,1,85.4,75.7
Trmt44,2,39,52.1
Trmt44,3,96.1,101
Klf15,1,82.8,74.6
Klf15,2,69.2,25.7
Klf15,3,37.4,62.3
Prox2,1,66.5,82.2
Prox2,2,63.6,46.6
Prox2,3,72,79.5
Lce1m,1,79.5,53.4
Lce1m,2,132 (active),133
Lce1m,3,140 (active),127
Cep55,1,116,122
Cep55,2,134 (active),119
Cep55,3,51.3,44.3
Entpd3,1,59.7,51.9
Entpd3,2,87.2,103
Entpd3,3,109,60
Dnd1,1,50.9,59
Dnd1,2,71.9,61.1
Dnd1,3,81.1,72.3
Utp6,1,76.7,78.9
Utp6,2,62.8,56
Utp6,3,56.3,56.6
